Values quoted from earlier work, collected in patent US10098889B2, “Complexes and salts of dihydropyrimidine derivatives and their application in pharmaceuticals” (SUNSHINE LAKE PHARMA CO., LTD., priority 2015, dated 2018).
For at least one compound, name, drawing or mass did not settle the structure.

Tested on: Hepatitis B virus
Conditions: Science, 2003, 299, 893-896; cited from earlier work

## Nc1ccn([C@@H]2CS[C@H](CO)O2)c(=O)n1 [lamivudine]
  IC50: 300 nM
